Measured values from the supplement of paper PMC12067093, “Discovery and optimisation of a covalent ligand for TRIM25 and its application to targeted protein ubiquitination” (Chemical Science, 2025).
Some of the results follow.

Protein sequences, listed by entry. Tags and fused reporters are not part of them. Lines headed by an entry give the natural chain unless they say otherwise; changes in a name come on top.
UniProt Q6PJW8: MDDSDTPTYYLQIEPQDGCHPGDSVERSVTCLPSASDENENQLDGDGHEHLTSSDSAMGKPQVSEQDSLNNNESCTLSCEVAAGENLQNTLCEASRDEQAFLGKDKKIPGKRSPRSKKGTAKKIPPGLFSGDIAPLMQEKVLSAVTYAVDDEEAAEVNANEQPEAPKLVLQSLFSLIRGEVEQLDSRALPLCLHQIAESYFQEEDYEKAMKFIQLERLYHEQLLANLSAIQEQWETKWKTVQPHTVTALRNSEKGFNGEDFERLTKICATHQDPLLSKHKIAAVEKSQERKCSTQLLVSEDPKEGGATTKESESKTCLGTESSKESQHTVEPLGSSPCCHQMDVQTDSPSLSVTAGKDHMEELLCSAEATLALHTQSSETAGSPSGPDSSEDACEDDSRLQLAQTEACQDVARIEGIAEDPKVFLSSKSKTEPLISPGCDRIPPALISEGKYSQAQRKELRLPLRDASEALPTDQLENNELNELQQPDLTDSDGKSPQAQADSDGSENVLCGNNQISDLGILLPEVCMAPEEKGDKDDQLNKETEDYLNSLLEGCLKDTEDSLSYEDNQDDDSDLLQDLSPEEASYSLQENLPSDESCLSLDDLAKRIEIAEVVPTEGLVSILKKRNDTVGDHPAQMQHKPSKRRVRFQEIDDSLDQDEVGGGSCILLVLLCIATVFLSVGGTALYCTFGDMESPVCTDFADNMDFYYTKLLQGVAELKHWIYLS
UniProt P62633: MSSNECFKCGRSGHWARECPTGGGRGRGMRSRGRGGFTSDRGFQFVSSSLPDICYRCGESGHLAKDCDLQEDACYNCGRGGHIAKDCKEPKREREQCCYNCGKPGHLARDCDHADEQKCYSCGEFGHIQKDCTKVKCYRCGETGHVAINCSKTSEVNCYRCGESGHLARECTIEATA
UniProt P53621: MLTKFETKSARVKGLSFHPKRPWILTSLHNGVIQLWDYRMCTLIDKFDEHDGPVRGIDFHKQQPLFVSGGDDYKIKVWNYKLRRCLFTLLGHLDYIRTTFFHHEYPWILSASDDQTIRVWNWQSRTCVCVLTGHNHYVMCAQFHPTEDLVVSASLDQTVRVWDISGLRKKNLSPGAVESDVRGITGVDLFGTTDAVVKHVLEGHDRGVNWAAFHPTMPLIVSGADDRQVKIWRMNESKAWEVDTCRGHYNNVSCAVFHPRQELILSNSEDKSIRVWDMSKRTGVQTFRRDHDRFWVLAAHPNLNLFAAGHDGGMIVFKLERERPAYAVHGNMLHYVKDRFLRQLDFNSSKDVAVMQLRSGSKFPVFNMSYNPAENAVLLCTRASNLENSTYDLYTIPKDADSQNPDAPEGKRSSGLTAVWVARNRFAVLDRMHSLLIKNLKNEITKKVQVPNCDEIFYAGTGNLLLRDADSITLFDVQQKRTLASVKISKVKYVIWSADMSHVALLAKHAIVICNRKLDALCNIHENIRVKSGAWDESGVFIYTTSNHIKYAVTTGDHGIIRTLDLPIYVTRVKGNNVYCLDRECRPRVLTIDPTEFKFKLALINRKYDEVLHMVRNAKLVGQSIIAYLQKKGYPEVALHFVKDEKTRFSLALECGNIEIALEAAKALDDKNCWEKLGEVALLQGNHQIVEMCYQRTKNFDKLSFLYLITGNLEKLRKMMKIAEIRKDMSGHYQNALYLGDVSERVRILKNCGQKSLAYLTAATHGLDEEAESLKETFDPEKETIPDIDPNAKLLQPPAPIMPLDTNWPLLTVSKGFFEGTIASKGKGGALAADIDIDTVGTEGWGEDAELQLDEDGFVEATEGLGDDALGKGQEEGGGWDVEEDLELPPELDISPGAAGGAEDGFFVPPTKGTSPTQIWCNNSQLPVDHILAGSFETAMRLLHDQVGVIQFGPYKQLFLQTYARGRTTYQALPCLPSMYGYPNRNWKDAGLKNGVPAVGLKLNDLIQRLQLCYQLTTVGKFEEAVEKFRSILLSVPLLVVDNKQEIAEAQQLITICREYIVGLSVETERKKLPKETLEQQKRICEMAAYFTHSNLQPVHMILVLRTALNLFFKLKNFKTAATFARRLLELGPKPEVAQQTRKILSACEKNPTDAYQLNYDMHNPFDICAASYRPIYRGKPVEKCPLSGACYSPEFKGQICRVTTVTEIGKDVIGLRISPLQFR
UniProt Q96JB2: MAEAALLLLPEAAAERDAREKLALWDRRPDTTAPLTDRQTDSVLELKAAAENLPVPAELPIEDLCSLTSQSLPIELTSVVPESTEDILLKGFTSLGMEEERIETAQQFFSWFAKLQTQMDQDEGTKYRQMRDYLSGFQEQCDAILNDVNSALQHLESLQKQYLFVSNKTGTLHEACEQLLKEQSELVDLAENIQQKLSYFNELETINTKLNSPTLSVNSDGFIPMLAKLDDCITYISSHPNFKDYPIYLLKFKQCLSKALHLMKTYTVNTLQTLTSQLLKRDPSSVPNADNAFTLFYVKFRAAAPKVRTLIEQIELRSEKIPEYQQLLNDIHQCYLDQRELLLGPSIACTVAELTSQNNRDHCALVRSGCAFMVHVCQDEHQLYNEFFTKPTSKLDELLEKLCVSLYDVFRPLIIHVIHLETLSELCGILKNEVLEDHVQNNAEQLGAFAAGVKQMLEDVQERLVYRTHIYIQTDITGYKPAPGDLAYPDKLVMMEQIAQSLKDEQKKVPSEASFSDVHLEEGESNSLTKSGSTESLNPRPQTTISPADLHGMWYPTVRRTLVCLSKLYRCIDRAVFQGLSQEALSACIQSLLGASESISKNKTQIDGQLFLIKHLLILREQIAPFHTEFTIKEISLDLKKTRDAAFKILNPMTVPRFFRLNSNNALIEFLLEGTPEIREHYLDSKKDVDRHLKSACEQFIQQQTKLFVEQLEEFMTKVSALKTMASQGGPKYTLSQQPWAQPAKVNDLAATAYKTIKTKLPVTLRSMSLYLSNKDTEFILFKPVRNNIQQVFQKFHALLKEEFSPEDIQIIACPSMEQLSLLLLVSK
UniProt Q8NI60: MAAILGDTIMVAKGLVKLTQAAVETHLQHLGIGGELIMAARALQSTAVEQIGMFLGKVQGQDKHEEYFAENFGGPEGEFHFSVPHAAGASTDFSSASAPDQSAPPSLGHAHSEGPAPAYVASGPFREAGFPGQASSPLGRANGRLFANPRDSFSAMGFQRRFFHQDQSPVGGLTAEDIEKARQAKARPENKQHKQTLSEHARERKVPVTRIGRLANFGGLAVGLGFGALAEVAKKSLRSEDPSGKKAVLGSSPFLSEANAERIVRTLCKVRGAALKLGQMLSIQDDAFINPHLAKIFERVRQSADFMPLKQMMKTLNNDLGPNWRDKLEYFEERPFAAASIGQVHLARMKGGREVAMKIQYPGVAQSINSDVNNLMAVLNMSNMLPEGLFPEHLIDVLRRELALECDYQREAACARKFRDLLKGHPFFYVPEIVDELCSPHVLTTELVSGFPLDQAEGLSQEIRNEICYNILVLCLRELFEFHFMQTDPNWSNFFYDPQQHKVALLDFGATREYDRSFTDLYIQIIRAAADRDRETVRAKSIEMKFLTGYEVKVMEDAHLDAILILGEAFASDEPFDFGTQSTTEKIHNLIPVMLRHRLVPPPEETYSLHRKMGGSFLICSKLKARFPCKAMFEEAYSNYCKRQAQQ
UniProt Q9Y678: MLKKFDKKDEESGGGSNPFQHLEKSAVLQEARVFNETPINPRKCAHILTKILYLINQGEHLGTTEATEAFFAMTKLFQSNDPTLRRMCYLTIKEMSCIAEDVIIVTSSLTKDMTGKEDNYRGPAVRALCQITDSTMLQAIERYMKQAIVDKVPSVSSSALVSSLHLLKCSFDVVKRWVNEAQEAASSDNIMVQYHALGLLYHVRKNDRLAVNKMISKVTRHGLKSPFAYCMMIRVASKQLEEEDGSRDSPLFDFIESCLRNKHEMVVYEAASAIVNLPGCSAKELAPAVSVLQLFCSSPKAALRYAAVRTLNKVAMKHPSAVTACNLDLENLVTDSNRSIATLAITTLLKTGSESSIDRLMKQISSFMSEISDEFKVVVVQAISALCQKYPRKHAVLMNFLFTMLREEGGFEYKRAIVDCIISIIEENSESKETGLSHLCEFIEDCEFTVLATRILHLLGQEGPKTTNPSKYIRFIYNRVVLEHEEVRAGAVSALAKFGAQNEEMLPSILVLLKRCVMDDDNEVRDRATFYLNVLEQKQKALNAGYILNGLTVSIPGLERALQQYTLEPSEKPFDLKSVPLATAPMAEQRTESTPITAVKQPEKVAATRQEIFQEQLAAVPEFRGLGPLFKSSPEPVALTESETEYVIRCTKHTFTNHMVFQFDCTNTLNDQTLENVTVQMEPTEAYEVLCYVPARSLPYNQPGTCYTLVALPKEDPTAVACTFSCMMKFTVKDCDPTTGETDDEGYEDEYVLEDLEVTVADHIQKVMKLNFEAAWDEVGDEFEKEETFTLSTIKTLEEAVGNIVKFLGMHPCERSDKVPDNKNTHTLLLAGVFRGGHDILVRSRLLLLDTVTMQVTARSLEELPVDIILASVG
UniProt Q9H9Q2: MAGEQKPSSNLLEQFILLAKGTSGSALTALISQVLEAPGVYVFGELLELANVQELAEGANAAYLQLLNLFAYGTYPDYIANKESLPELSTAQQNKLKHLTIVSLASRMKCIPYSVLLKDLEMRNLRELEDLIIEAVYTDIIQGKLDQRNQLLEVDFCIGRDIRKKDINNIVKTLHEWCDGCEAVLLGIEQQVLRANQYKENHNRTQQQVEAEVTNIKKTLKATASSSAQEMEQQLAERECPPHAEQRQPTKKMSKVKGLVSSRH
UniProt P35606: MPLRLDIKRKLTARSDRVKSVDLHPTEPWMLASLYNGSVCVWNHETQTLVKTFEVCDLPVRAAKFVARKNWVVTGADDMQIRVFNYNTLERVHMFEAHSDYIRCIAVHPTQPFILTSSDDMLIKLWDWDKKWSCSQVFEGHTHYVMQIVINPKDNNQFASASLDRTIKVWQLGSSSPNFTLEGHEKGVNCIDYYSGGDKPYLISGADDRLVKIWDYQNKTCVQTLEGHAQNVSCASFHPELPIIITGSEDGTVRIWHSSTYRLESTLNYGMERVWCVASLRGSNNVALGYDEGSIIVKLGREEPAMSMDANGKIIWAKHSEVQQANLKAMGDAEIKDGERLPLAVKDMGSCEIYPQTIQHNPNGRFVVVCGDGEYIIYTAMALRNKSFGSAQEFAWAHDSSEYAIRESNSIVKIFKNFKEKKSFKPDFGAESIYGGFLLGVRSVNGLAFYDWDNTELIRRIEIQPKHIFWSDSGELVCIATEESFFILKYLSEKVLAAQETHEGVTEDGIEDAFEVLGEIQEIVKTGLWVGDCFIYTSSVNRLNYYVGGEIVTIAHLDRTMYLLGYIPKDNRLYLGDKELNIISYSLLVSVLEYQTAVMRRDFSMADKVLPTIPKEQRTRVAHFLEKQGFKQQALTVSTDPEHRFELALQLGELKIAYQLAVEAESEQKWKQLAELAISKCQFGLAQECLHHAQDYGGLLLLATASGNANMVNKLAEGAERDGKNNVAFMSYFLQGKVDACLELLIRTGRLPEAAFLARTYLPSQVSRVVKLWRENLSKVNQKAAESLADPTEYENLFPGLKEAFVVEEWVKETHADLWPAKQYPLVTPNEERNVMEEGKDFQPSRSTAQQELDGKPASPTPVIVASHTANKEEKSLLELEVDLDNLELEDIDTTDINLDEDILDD
UniProt Q96KP4: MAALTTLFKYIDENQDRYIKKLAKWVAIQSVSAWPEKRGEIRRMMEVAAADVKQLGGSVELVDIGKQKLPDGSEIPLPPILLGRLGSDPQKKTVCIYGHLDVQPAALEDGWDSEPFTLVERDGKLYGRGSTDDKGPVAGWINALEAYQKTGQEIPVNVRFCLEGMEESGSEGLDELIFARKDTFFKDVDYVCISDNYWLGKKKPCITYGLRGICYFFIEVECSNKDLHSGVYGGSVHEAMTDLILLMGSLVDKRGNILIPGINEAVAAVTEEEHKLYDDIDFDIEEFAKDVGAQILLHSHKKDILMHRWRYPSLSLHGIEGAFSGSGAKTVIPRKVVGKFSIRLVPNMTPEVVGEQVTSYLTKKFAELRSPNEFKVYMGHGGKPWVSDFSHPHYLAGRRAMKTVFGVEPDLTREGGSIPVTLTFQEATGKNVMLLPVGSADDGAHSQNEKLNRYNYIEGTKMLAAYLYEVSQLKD
UniProt P09543: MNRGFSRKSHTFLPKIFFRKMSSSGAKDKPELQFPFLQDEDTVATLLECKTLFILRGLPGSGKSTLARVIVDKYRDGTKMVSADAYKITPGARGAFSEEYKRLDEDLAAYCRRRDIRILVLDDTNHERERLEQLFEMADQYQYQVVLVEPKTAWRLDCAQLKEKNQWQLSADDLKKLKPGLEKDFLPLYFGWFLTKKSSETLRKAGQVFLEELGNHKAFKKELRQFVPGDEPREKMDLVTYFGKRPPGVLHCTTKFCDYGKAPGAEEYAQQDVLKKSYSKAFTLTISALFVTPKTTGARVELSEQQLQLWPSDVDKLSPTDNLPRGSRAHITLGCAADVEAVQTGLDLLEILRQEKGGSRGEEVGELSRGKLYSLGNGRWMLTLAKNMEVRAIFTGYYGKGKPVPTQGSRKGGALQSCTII

Compound: Cc1cc(ccc1-c1ccccc1)C(=O)N1CCCN(CC1)C(=O)CCl [compound 10]
Assay: probe-labelled cysteine peptide fold change vs DMSO (competition) (log2 fold change); higher = less target engagement (more negative = stronger competition)
Conditions: THP-1, incubation time: 4 h
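Further: competitive profiling in live THP-1 cells: cysteine peptides tagged with an iodoacetamide desthiobiotin (IA-DTB) probe, intensity after compound treatment relative to DMSO-treated cells.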

Target | probe-labelled cysteine peptide fold change (10 µM) | probe-labelled cysteine peptide fold change (50 µM)
CNST_Q6PJW8_292_CSTQLLVSEDPK (UniProt Q6PJW8) | -0.328 | -0.395
CNBP_P62633_150_CGETGHVAINCSK (UniProt P62633) | -0.103 | 0.0483
COPA_P53621_522_KLDALCNIHENIR (UniProt P53621) | -0.0301 | 0.0637
COLGALT1_Q8NBJ5_369_ALQAQEIECR (UniProt Q8NBJ5) | 0.0256 | 0.125
COG3_Q96JB2_363_ELLLGPSIACTVAELTSQNNRDHCALVR (UniProt Q96JB2) | 0.16 | 0.126
COQ8A_Q8NI60_406_RELALECDYQR (UniProt Q8NI60) | 0.00187 | 0.00657
COPG1_Q9Y678_446_ETGLSHLCEFIEDCEFTVLATR (UniProt Q9Y678) | 0.155 | 0.546
CNPY2_Q9Y2B0_28_SQDLHCGACR (UniProt Q9Y2B0) | -0.272 | -0.187
COPS7B_Q9H9Q2_181_TLHEWCDGCEAVLLGIEQQVLR (UniProt Q9H9Q2) | -0.0109 | -0.138
COLGALT1_Q8NBJ5_203_AAYSNFWCGMTSQGYYK (UniProt Q8NBJ5) | -0.0916 | 0.0678
CNOT7_Q9UIV1_148_KHEEEGIETQYFAELLMTSGVVLCEGVK (UniProt Q9UIV1) | 0.17 | -0.325
COPG1_Q9Y678_440_ETGLSHLCEFIEDCEFTVLATR (UniProt Q9Y678) | 0.0873 | 0.125
CNOT1_A5YKK6_426_HAEGQLSFIQHSLINPEIFCFADYPCHTVATDILK (UniProt A5YKK6) | 0.0645 | -0.166
COL4A3BP_Q9Y5P4_185_YFDACADAVSKDELQR (UniProt Q9Y5P4) | 0.0339 | -0.287
CNOT1_A5YKK6_1706_AYGSPWCNK (UniProt A5YKK6) | 0.0353 | 0.0153
COPB2_P35606_276_VWCVASLR (UniProt P35606) | 0.234 | 0.379
COG1_Q8WTW3_87_ATDQYCAR (UniProt Q8WTW3) | -0.109 | -0.128
COPG1_Q9Y678_813_FLGMHPCER (UniProt Q9Y678) | 0.00203 | -0.0568
COPS7B_Q9H9Q2_157_NQLLEVDFCIGR (UniProt Q9H9Q2) | 0.0835 | -0.0523
CNDP2_Q96KP4_161_FCLEGMEESGSEGLDELIFAR (UniProt Q96KP4) | 0.0344 | -0.213
COPS6_Q7L5N1_283_TDFYDQCNDVGLMAYLGTITK (UniProt Q7L5N1) | 0.015 | 0.222
CNTLN_Q9NXG0_228_ECVQNK (UniProt Q9NXG0) | -0.122 | -0.399
CNDP2_Q96KP4_222_GICYFFIEVECSNK (UniProt Q96KP4) | 0.0266 | 0.833
COA5_Q86WW8_24_EDLGACLLQSDCVVQEGK (UniProt Q86WW8) | -0.374 | 0.21

Full records from above. Values in the order: probe-labelled cysteine peptide fold change (10 µM)	probe-labelled cysteine peptide fold change (50 µM)
CNOT1_A5YKK6_426_HAEGQLSFIQHSLINPEIFCFADYPCHTVATDILK (UniProt A5YKK6) as listed: 0.0645	-0.166
COLGALT1_Q8NBJ5_203_AAYSNFWCGMTSQGYYK (UniProt Q8NBJ5) as listed: -0.0916	0.0678

Next entries follow.

Target | probe-labelled cysteine peptide fold change (10 µM) | probe-labelled cysteine peptide fold change (50 µM)
COPA_P53621_245_AWEVDTCR (UniProt P53621) | -0.0547 | -0.053
CNP_P09543_252_RPPGVLHCTTK (UniProt P09543) | -0.1 | -0.246
CNBP_P62633_77_DCDLQEDACYNCGR (UniProt P62633) | 0.0547 | 0.01
COPB1_P53618_684_NEMNCK (UniProt P53618) | -0.214 | -0.625
COMT_P21964_207_YLPDTLLLEECGLLR (UniProt P21964) | -0.00711 | -0.0131
COLGALT1_Q8NBJ5_203_AAYSNFWCGMTSQGYYKR (UniProt Q8NBJ5) | -0.193 | -0.51
COQ7_Q99807_137_EGAMACTVAVEESIAHHYNNQIR (UniProt Q99807) | -0.144 | 0.105
COG2_Q14746_563_NFSSISAALEDSQSSFSACVPSLSSK (UniProt Q14746) | 0.12 | -0.101
COPB2_P35606_351_DMGSCEIYPQTIQHNPNGR (UniProt P35606) | -0.056 | 0.257
CNPY3_Q9BT09_206_DTSCLAEQWSGK (UniProt Q9BT09) | -0.165 | 0.203
COPG1_Q9Y678_97_EMSCIAEDVIIVTSSLTK (UniProt Q9Y678) | 0.11 | 0.136
COG3_Q96JB2_334_IPEYQQLLNDIHQCYLDQR (UniProt Q96JB2) | 0.246 | 0.0853
CNST_Q6PJW8_439_SKTEPLISPGCDR (UniProt Q6PJW8) | -0.0395 | -0.108
COPS4_Q9BT78_232_HALHCTILASAGQQR (UniProt Q9BT78) | 0.137 | 0.0952
COPA_P53621_580_GNNVYCLDR (UniProt P53621) | 0.134 | -0.0303
COPB2_P35606_56_TFEVCDLPVR (UniProt P35606) | -0.0455 | 0.0775
CNP_P09543_111_RLDEDLAAYCR (UniProt P09543) | 0.175 | 0.0747
COPG1_Q9Y678_516_RCVMDDDNEVR (UniProt Q9Y678) | 0.134 | 0.224
CNBP_P62633_119_CYSCGEFGHIQK (UniProt P62633) | 0.115 | 0.0151
COPS5_Q92905_218_IEDFGVHCK (UniProt Q92905) | -0.0765 | 0.0276
COA7_Q96BR5_187_ACDLGHIWACANASR (UniProt Q96BR5) | 0.0578 | 0.0556
COG8_Q96MW5_165_HTEILEILEIPQLMDTCVR (UniProt Q96MW5) | 0.0366 | 0.124
COPA_P53621_1013_LQLCYQLTTVGK (UniProt P53621) | 0.167 | 0.444
